For five molecules, binding results are on record in PMC4489804.

Sequences of proteins named here, by UniProt entry; tags and fusion partners are left off. A change or cut given only in a name is not applied to a line headed by its entry.
UniProt Q9SJF3: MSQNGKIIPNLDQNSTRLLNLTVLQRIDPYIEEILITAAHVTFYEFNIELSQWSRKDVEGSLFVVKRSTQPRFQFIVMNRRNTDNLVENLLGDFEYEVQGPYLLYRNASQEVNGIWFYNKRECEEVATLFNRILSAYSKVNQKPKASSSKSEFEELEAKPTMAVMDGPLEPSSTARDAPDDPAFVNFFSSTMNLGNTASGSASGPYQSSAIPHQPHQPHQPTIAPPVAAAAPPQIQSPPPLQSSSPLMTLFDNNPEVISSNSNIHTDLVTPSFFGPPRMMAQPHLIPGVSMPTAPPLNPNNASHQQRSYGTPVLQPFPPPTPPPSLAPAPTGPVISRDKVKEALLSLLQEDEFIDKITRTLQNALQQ
UniProt F4HZB2: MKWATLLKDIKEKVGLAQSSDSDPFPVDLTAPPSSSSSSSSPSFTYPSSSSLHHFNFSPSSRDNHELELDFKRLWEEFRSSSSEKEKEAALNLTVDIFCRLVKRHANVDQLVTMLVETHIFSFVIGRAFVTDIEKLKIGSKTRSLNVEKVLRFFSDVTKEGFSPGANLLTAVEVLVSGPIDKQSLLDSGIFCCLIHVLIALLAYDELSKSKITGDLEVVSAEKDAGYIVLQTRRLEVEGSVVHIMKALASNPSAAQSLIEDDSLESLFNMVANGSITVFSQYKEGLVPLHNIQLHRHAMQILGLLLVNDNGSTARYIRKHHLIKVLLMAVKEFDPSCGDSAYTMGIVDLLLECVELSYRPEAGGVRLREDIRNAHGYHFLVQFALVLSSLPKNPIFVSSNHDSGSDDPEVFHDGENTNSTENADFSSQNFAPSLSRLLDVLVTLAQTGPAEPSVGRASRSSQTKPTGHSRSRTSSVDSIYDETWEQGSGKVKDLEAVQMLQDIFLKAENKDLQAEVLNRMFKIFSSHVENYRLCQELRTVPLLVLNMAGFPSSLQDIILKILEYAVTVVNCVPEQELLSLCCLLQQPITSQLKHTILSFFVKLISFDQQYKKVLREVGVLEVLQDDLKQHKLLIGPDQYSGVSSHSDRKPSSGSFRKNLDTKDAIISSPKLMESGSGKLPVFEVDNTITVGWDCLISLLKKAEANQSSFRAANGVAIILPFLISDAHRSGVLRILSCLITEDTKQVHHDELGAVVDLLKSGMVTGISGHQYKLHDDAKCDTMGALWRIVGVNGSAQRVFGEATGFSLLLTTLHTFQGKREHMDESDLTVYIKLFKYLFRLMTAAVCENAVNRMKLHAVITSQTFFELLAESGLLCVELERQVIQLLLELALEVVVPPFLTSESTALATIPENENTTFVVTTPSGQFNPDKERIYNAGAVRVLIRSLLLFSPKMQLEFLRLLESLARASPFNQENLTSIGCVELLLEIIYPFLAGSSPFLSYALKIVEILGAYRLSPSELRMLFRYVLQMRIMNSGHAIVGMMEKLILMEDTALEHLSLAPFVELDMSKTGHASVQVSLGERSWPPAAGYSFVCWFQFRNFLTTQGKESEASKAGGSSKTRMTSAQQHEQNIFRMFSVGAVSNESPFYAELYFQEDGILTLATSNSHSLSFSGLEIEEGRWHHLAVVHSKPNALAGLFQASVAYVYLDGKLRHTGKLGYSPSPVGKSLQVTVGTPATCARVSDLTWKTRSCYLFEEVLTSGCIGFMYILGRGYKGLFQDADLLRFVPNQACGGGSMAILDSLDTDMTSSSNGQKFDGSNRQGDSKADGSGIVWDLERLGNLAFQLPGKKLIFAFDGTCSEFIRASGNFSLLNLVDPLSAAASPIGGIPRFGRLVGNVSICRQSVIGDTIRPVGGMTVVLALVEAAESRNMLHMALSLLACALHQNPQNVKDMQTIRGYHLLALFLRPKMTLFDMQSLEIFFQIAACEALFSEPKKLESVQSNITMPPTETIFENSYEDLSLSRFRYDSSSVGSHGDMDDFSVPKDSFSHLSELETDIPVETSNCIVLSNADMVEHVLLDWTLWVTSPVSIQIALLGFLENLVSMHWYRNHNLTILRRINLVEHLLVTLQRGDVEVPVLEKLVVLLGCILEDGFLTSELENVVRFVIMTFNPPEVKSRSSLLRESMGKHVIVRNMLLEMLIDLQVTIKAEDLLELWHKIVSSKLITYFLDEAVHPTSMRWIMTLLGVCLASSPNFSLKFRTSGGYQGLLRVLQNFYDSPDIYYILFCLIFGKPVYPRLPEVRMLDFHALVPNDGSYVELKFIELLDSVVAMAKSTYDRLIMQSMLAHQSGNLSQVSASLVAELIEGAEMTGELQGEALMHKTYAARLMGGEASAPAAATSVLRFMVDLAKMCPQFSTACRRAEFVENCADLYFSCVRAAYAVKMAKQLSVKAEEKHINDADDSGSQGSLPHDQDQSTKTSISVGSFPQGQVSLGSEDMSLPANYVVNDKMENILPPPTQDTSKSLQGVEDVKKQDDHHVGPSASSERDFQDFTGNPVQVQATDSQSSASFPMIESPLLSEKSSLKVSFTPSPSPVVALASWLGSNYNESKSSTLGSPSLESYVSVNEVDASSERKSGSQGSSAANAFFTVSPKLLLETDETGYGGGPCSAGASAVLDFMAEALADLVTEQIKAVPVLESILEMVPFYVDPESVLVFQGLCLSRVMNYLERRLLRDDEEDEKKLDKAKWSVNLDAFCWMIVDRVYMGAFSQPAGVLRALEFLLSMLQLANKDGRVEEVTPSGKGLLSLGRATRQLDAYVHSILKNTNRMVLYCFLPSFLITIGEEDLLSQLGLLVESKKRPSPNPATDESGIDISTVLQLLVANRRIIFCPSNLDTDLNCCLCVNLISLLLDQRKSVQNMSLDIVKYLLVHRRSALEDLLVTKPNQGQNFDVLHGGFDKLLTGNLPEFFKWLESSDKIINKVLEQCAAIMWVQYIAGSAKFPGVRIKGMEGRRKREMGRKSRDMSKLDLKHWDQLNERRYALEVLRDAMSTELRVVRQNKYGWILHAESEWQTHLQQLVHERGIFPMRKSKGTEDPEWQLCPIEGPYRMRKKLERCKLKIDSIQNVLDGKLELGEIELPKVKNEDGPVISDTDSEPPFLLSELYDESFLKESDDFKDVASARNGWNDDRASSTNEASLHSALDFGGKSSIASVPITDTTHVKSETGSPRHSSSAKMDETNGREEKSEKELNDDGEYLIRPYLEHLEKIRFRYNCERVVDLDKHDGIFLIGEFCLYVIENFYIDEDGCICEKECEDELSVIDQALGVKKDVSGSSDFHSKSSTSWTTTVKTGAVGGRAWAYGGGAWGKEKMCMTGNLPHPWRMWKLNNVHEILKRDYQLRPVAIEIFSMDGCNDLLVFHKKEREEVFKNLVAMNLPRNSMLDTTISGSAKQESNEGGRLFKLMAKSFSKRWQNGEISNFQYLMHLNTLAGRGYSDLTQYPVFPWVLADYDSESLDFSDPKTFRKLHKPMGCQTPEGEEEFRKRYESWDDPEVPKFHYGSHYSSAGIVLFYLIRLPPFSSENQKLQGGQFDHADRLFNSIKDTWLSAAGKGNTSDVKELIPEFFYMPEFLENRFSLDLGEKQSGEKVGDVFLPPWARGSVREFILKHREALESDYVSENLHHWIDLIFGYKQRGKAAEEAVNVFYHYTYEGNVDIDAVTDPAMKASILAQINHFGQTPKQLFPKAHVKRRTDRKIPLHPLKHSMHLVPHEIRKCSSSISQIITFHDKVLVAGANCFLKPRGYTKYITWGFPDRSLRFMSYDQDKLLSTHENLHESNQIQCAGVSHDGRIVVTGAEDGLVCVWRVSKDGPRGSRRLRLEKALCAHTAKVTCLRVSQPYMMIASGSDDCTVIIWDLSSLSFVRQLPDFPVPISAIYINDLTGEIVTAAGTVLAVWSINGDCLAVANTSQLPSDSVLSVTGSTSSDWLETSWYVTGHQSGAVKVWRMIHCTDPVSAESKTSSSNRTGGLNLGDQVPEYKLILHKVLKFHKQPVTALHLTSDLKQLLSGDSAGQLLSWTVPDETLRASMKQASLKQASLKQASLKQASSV
UniProt Q92636: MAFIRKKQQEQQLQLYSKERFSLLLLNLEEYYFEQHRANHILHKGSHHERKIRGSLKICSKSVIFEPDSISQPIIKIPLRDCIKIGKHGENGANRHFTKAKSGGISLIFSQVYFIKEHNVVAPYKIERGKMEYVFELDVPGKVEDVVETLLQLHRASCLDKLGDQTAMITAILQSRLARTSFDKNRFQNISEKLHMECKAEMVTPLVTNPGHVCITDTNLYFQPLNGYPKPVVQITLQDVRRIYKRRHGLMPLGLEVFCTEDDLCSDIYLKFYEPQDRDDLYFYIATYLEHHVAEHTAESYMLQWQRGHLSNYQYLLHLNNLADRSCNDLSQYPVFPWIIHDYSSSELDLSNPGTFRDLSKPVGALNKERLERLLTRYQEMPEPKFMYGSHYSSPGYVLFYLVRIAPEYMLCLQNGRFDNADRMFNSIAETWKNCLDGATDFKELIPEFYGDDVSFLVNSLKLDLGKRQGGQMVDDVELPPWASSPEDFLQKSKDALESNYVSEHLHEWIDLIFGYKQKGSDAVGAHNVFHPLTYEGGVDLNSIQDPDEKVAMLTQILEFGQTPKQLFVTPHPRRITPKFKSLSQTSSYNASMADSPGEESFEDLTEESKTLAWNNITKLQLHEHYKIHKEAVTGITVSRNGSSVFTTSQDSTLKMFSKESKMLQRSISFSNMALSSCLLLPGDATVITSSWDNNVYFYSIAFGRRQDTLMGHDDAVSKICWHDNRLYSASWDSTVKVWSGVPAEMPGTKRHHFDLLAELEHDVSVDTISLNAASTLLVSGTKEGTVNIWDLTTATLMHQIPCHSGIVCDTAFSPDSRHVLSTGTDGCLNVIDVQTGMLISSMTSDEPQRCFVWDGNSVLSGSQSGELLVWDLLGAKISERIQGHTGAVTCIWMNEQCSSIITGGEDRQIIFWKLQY
UniProt Q9FY89: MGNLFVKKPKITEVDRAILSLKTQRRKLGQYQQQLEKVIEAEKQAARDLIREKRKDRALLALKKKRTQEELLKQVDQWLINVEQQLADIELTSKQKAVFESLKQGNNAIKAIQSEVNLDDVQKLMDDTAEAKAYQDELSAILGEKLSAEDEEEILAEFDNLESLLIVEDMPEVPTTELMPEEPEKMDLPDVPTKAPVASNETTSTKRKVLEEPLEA

For assay [1], the target named is YFPC-DCP1 (Arabidopsis thaliana) (UniProt Q9SJF3). The experiment in a line: split reporter; BiFC with YFPN and YFPC fusions under the 35S promoter in transiently transformed N. benthamiana leaf epidermis cells, 72 h post-transfection; DCP2-mCHERRY or free RFP coexpressed.
Assay [2] deals with SPI-PBW, N-terminally fused to the GAL4 Binding Domain (BD) (Arabidopsis thaliana) (UniProt F4HZB2). The experiment in a line: two-hybrid; SPI-PBW or FAN-PB fused to the GAL4 BD, DCP1 homologs fused to the GAL4 AD; dropout medium -L -W -H with 3 mM 3AT.
The target is the same in assay [3]. The experiment in a line: two-hybrid; SPI-PBW fused to the GAL4 BD as bait, preys fused to the GAL4 AD; dropout medium -L -W -H with 5 mM 3AT; DCP1 first found in cDNA library screens.
Assay [4] has as its target FAN-PB N-terminally fused to the GAL4 Binding Domain (BD) (human) (UniProt Q92636). The experiment in a line: two-hybrid; SPI-PBW or FAN-PB fused to the GAL4 BD, DCP1 homologs fused to the GAL4 AD; dropout medium -L -W -H with 3 mM 3AT.

Results are given in words; binding and its absence hold for the method and conditions named. For part of these data: Binding calls can cover weak binding; strength is not graded here. For part of these data: Where a sequence is shown, tags or fusion partners need not be part of it. For part of these data: In cells and extracts the contact can be indirect.

As to “VPS20.2-YFPN (from UniProt Q9FY89 1-216)”, the binding entry in assay [1] is “no binding”.

B1: yeast DCP1p, N-terminal fused to the GAL4 Activation Domain (AD) (protein, UniProt Q12517 1-231)
chain: MTGAATAAENSATQLEFYRKALNFNVIGRYDPKIKQLLFHTPHASLYKWDFKKDEWNKLEYQGVLAIYLRDVSQNTNLLPVSPQEVDIFDSQNGSNNIQVNNGSDNSNRNSSGNGNSYKSNDSLTYNCGKTLSGKDIYNYGLIILNRINPDNFSMGIVPNSVVNKRKVFNAEEDTLNPLECMGVEVKDELVIIKNLKHEVYGIWIHTVSDRQNIYELIKYLLENEPKDSFA
For B1, in assay [2], the binding entry was “binds”.

B2: … PROTEIN5 (DCP5) fused to the GAL4 Activation Domain (protein, UniProt Q9C658 1-611)
chain: MAADNTGSKSSSAADSYVGSLISLTSKSEIRYEGILYNINTDESSIGLQNVRSFGTEGRKKDGPQVPPSDKVYEYILFRGTDIKDLQVKASPPVQPPASTINNDPAIIQSHYPSPMPTSGSLPSTASGSLPDISSHNGQPGQHGMGFQNAMPLYQPGGNLGSWGASPQPPMYWQGFYTPPPNGLPQLHQQSLIRPPHGLPMPNSLQQPLQYPNFNTPPPPTGSSSLQGSSLPEAPSSLFPFSTSSQMLAPSSLPFPGLPPVTLSSSLQSTLQSAPSPSLASEMAPPLLSNKAPITAPPTLPQDTNLLSFSLSTTRATEASTGLPLSNKPSVVTGPISPPQTTPLTSAPVAGVSSSISQDKPKPLLVTPGQLLQSGSSAVSLSPPSTNADKDVEVVQVSSSAGLEQSVPVTSEAQPPILPLPSSARPTQKPNGHSFPNHNGYRGRGRGRGRGAGRSHQVMKFTEDFDFTAMNEKFNKDEVWGHLGKSTTLDGDEDDDSPTVDEAELPKIEAKPVYNKDDFFDSLSSNTIDRESQNSRPRFSEQRKLDTETFGEFSRFRGGRGGRGGYGRNNGYSRGGYGGRGYGGYGGRGGGGGGYGYGGRGQGRGVSNRTT
With B2, the binding result in assay [3] was “no binding”.

B3: VARICOSE (VCS) fused to the GAL4 Activation Domain (protein, UniProt Q9LTT8 1-1344)
chain: MASSPGNTNPHNTPPFDLGILFKPSSNPYPPPAASYPPPTGPFLHNQYDQQHYAPPGISAQPSPVTQQQQDVSSSSAATNLHPQRTLSYPTPPLNLQSPRSNHNPGTHILALLNNTNNGAPVANQEPSHQLPVVNHNEIARSFPGGSGPIRVPSCKLPKGRRLIGEHAVYDVDVRLQGEIQPQLEVTPITKYGSDPQLVVGRQIAVNKVYICYGLKGGNIRVLNINTALRSLFRGHSQRVTDMAFFAEDVDMLASVSLDGKVFVWKISEGSEGEDQPQITGKIVLALQILGEEDTKHPRVCWHCHKQEILVVSIGKHVLRIDTTKVGRGEVFSAEAPLQCPLDKLIDGVQIVGKHDGEVTDLSMCQWMTTRLVSSSVDGTIKIWQDRKAQPLVVLRPHDGHPVSSATFVTSPERPDHIILITGGPLNREMKIWVSAGEEGWLLPADAESWRCTQTLDLKSSTEPRAEEAFFNQVIALSEAGLLLLANAKRNALYAVHLDYGSSPVGTRMDYLSEFTVTMPILSFIGTNDPPEEPIVKVYCVQTLAIQQYTLDLCLCLPPPIENMGLEKSDSSVSREANLVEGMSEPSGLKPTDLPSVDSVPKPSIIVNRSESANKLSFPSAEATSQAIVPPNGEPKTSGLPSQTSGAGSAYATLPQLPLSPRLSSKLSGYHTPVEAIEPVIPHHELGGKTPSADYSVDRQMDAVGERNLDVSSVEEISRSKDSNVTPDDDVSGMRSPSAFFKHPTHLVTPSEILMGVSSAEASITTEDRRDRDANIQDVNNDPRDTEVEVKEISEARSTQNGEINDHDETENCTSENREKVFCSQVSNLSTEMARDCYPSTEGTFIPGESKAYGQPIKAGDESGVDSRGGPAKLLKGKKQKAKNSQGPGLSSTSSNVANLADSFNEQSQSLSHPMTDLLPQLLAMQETMNQVMASQKEMQRQLSNAATGPIGKESKRLEVALGRMIEKSSKSNADALWARIQEETVKNEKALRDHAQQIVNATTNFMSKELNAMFEKTIKKELAAIGPALARSVVPVIEKTVSSAITESFQRGIGDKAVNQLDKSVNIKLEATVARQIQAQFQTSGKQALQEGLRSSVESSVIPSFEKACKAMFDQIDSAFQKGIAEHTNAAQQRFDSGHSQLAHTLKESITSASSVAQALSRELAETQRNLLALAAAGANSGGSNSLVTQLSGGPLGALLEKVEAPMDPTTELSRLISERKYEESFTSALQRSDVSIVSWLCSQVDLRGLLAMNPLPLSQGVLLSLLQQLACDISKDTSRKLAWMTDVVAAINPSDQMIAVHARPIFEQVYQILHHHRNAPGSDVSAIRLIMHVINSMLMGCK
As for B3, the binding entry in assay [3] is “no binding”.

B4: human DCP1b, N-terminal fused to the GAL4 Activation Domain (AD) (protein, UniProt Q8IZD4 1-617)
chain: MAAVAAGGLVGKGRDISLAALQRHDPYINRIVDVASQVALYTFGHRANEWEKTDVEGTLFVYTRSASPKHGFTIMNRLSMENRTEPITKDLDFQLQDPFLLYRNARLSIYGIWFYDKEECQRIAELMKNLTQYEQLKAHQGTGAGISPVILNSGEGKEVDILRMLIKAKDEYTKCKTCSEPKKITSSSAIYDNPNLIKPIPVKPSENQQQRIPQPNQTLDPEPQHLSLTALFGKQDKATCQETVEPPQTLHQQQQQQQQQQEKLPIRQGVVRSLSYEEPRRHSPPIEKQLCPAIQKLMVRSADLHPLSELPENRPCENGSTHSAGEFFTGPVQPGSPHNIGTSRGVQNASRTQNLFEKLQSTPGAANKCDPSTPAPASSAALNRSRAPTSVTPVAPGKGLAQPPQAYFNGSLPPQTVGHQAHGREQSTLPRQTLPISGSQTGSSGVISPQELLKKLQIVQQEQQLHASNRPALAAKFPVLAQSSGTGKPLESWINKTPNTEQQTPLFQVISPQRIPATAAPSLLMSPMVFAQPTSVPPKERESGLLPVGGQEPPAAATSLLLPIQSPEPSVITSSPLTKLQLQEALLYLIQNDDNFLNIIYEAYLFSMTQAAMKKTM
B4: the binding result in assay [4] and in assay [2] was “binds” throughout.
